Results are given in words; binding and its absence hold for the method and conditions named. Binding seen in cells or lysates may run through a third protein. Some entries that bind do so weakly or less than the wild type.
Molecular target: 3xFLAG-BPLF1 (amino acid 1-235), N-terminal domain of the EBV large tegument protein BPLF1 (Epstein-Barr virus) (UniProt P03186)
Experiment: co-IP

Sequences of proteins named here, by UniProt entry; tags and fusion partners are left off. Residues count along the entry.
UniProt P03186, residues 1-235: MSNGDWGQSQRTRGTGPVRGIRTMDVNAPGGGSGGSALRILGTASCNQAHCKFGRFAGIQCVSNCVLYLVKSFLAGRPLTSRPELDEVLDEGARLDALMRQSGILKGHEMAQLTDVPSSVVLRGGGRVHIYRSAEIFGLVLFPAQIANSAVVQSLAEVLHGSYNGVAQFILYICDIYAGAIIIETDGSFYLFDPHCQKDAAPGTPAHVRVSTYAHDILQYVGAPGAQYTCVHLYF
UniProt P11387: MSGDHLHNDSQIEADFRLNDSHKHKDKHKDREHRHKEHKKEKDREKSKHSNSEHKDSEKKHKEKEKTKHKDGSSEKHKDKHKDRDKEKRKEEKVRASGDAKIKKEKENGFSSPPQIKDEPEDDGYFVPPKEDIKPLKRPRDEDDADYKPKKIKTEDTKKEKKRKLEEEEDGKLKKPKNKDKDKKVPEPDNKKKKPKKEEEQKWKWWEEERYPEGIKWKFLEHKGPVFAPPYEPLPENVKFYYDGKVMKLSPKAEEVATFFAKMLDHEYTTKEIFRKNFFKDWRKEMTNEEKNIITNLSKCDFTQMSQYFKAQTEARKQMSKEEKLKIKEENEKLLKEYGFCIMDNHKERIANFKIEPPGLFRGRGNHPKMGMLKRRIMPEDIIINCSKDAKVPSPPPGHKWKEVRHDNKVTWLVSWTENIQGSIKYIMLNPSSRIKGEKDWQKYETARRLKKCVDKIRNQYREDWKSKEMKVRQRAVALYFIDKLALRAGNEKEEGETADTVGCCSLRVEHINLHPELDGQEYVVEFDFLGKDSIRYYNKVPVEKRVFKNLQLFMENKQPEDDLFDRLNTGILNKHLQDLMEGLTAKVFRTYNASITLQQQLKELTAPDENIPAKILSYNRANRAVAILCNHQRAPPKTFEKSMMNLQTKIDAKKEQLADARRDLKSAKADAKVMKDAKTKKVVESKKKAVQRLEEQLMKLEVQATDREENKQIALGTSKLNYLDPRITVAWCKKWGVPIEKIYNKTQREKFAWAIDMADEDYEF
UniProt Q02880: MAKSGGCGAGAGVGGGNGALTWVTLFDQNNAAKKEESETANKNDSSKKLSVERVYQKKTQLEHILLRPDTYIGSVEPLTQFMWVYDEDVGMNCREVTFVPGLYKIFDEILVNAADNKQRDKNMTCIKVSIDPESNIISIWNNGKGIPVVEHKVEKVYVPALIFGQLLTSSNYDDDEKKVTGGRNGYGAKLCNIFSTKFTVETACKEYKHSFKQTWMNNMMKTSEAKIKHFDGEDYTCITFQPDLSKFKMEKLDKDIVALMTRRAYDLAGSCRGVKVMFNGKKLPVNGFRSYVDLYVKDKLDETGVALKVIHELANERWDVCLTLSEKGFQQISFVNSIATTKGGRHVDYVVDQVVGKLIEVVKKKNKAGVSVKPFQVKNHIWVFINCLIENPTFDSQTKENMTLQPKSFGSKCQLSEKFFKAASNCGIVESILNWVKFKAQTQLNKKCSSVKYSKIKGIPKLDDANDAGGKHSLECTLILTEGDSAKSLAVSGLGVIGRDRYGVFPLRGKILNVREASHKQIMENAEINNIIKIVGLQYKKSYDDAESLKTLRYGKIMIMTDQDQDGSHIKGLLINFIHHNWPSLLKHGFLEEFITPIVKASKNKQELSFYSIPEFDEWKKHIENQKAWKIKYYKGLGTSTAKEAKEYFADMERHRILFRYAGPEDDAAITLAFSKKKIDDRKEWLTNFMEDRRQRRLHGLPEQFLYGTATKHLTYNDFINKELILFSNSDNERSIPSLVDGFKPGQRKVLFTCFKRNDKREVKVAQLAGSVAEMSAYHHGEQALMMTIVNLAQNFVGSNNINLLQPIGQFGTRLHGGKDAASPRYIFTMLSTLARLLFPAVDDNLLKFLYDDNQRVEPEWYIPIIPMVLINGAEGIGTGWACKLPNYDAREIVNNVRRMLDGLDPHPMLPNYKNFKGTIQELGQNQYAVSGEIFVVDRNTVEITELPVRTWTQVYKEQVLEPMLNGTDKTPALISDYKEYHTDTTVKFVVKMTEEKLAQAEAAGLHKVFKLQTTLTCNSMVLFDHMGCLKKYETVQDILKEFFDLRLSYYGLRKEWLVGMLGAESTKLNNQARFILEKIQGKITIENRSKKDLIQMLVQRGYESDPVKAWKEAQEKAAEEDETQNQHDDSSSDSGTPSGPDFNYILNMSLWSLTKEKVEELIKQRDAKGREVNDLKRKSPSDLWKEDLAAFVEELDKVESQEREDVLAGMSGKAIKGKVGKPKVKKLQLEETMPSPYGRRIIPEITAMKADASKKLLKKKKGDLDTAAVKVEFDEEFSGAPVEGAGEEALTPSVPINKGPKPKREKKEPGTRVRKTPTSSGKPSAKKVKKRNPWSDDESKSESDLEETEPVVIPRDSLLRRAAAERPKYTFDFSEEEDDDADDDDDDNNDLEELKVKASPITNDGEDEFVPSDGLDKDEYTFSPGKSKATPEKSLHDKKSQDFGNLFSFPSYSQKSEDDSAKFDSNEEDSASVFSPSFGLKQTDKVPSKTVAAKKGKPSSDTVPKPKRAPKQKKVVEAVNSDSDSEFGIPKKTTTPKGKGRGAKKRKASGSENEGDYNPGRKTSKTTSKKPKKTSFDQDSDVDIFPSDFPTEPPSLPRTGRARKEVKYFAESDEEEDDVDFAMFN

Substance | binding
Topoisomerase I (TOP1), endogenous (from UniProt P11387 1-765) (enzyme) | no binding
Topoisomerase II beta (TOP2β), endogenous (from UniProt Q02880 1-1626) (enzyme) | binds
